Values after ≈ are worked out from the molar mass of the structure shown.
Tests used:
[1] = tested on: Staphylococcus aureus; assay: Antimicrobial activity against Staphylococcus aureus ATCC 6538 by two-fold serial dilution assay; format: functional
[2] = tested on: Escherichia coli; assay: Antimicrobial activity against Escherichia coli NCTC 10418 by two-fold serial dilution assay; format: functional

MIC [1]: 3.9 µg/mL (≈ 11.2 µM) | MIC [2]: 7.81 µg/mL (≈ 22.4 µM)
SMILES: CC1(C)S[C@@H]2[C@H](NC(=O)[C@H](N)c3ccccc3)C(=O)N2[C@H]1C(=O)O [AMPICILLIN]

Source: ChEMBL document CHEMBL4184194, “An appraisal on synthetic and pharmaceutical perspectives of pyrazolo[4,3-d]pyrimidine scaffold” (Bioorg Med Chem, 2018)
